PubChem BioAssay AID1259254, NCATS | 2017

- Screen: 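Finding genes that stop cells copying their DNA twice in one cycle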 (primary screen)
- Cells: human HCT116 colorectal cancer cells
- Knock-down reagent: single siRNA against human genes
- Timing: 3 days
- Measured: 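Imaged Hoechst DNA stain sorts each cell into a cycle phase by DNA amount; per plate, G2 fraction set to 0% for non-targeting and 100% for GMNN siRNA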
- Direction: G2 robust z-score and G2 cells, % of GMNN control: higher = more G2 cells, more excess DNA replication
- Rule for the call: 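Active siRNAs have a G2 robust z of 5 or more median absolute deviations over the median, which in these data means about 38% or higher of GMNN control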
Here is one part, drawn at random, of about 59,000 deposited reagents. In the full data, about 1,550 (2.6%) were called active. 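G2 share is only a proxy for re-replication; each gene was hit by three separate siRNAs, and active genes were retested.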 Reagents against one gene are numbered here. Further read-outs or replicates are left out here. The record does not give: the amount of reagent.

MAML1 #1
- G2 robust z-score: 0.606
- G2 cells, % of GMNN control: 7.23
- outcome: inactive

MAML1 #2
- G2 robust z-score: -1.02
- G2 cells, % of GMNN control: -4.19
- outcome: inactive

MAML1 #3
- G2 robust z-score: -0.00348
- G2 cells, % of GMNN control: 2.94
- outcome: inactive

KCNK18 #1
- G2 robust z-score: 0.277
- G2 cells, % of GMNN control: 4.91
- outcome: inactive

KCNK18 #2
- G2 robust z-score: 1.41
- G2 cells, % of GMNN control: 12.9
- outcome: inactive

KCNK18 #3
- G2 robust z-score: -0.679
- G2 cells, % of GMNN control: -1.81
- outcome: inactive

SLC26A5 #1
- G2 robust z-score: -0.307
- G2 cells, % of GMNN control: 0.807
- outcome: inactive

SLC26A5 #2
- G2 robust z-score: 2.44
- G2 cells, % of GMNN control: 20.1
- outcome: inactive

SLC26A5 #3
- G2 robust z-score: 3.2
- G2 cells, % of GMNN control: 25.5
- outcome: inactive

PLEKHF1 #1
- G2 robust z-score: 0.388
- G2 cells, % of GMNN control: 5.69
- outcome: inactive

PLEKHF1 #2
- G2 robust z-score: 0.921
- G2 cells, % of GMNN control: 9.45
- outcome: inactive

PLEKHF1 #3
- G2 robust z-score: 0.0386
- G2 cells, % of GMNN control: 3.24
- outcome: inactive

Entries above whose target name starts with K or k:
KCNK18 #1
- G2 robust z-score: 0.277
- G2 cells, % of GMNN control: 4.91
- outcome: inactive

KCNK18 #2
- G2 robust z-score: 1.41
- G2 cells, % of GMNN control: 12.9
- outcome: inactive

KCNK18 #3
- G2 robust z-score: -0.679
- G2 cells, % of GMNN control: -1.81
- outcome: inactive

More results:
CCDC71 #1
- G2 robust z-score: 0.117
- G2 cells, % of GMNN control: 3.79
- outcome: inactive

CCDC71 #2
- G2 robust z-score: -0.598
- G2 cells, % of GMNN control: -1.24
- outcome: inactive

CCDC71 #3
- G2 robust z-score: 1.03
- G2 cells, % of GMNN control: 10.2
- outcome: inactive

BDH1 #1
- G2 robust z-score: 0.222
- G2 cells, % of GMNN control: 4.53
- outcome: inactive

BDH1 #2
- G2 robust z-score: 1.37
- G2 cells, % of GMNN control: 12.6
- outcome: inactive

BDH1 #3
- G2 robust z-score: -0.712
- G2 cells, % of GMNN control: -2.05
- outcome: inactive
